Test results from US20230235082 (published 2023).

Experiment: general procedure: peptide synthesis; PyBOP
Details: late stage modification step

Acid-Suc-MMAE
step yield: 77.4%
